The list does not hold the whole screen: it is rich in T/C values a quarter to a half above the control, in often repeated tests (any T/C) and in doses without a T/C. Other doses and runs of a compound stand elsewhere. T/C gives the treated animals as a percentage of the vehicle group. Some entries give survivors of the animals treated and no T/C: the source files T/C as zero there, which appears to mark a toxic dose or a test without result, not a measured value. Some survivor counts are full or nearly so, which does not show that the dose was tolerated: survival well below the control is almost never listed, so the zero probably covers shortened survival too. Counts of survivors are from the toxicity check (mostly the fifth day) where no day follows; animals may have died later. Schedules are NCI's codes, taken here to give the interval after Q, in days (D) or hours (H), and the number of doses after X. Some doses were run more than once; the values are given in rising order. For survival time, the PubChem record calls one and a half times the control and up active, and a quarter to a half above the control has no call in these data; cut-offs in other NCI protocols can differ. Some T/C values are followed by the survivors on the day toxicity was checked, most often the fifth; without a count, all were alive then. *1 amine or outer side, *2 acyl side, *3 side chain or, on linkers, in order; H or OH if unused. Where a SMILES comes first, the peptide text is derived from it. Bridges are numbered along the chain shown (N, C = ends). Roman numbers before positions name the chains, in order. [ ]: non-standard residue; d: D form. Actinocin(9to1) = Cc1c2oc3c(C)ccc(C(=O)[*:1])c3nc-2c(C(=O)[*:2])c(N)c1=O; aThr = C[C@H](O)[C@H](N)C(=O)O; NMeV = CN[C@H](C(=O)O)C(C)C; Sar = CNCC(=O)O
Tested on: BDF1 mice, P329 reticulum cell sarcoma ip, survival T/C
Assay: NCI In Vivo Anticancer Drug Screen. Data for tumor model P329 Reticulum Cell Sarcoma (intraperitoneal) in B6D2F1 (BDF1) mice
Details: T/C endpoint: median survival time, higher T/C = longer survival
Experimental: The antitumor activity of compounds was measured in mice bearing transplantable tumors. Survival or tumor size were measured and the results are expressed as the measurement made in the treated group (T) divided by the measurement made in the vehicle treated control group (C). The tumor model used in this assay is P329 Reticulum Cell Sarcoma (intraperitoneal) in B6D2F1 (BDF1) mice

[1] = dose: 25.0 mg/kg/injection, schedule: Q01DX010 (ip), vehicle: saline
[2] = dose: 100.0 mg/kg/injection, schedule: Q01DX010 (ip), vehicle: saline
[3] = dose: 0.25 mg/kg/injection, schedule: Q01DX010 (ip), vehicle: saline
[4] = dose: 0.5 mg/kg/injection, schedule: Q01DX010 (ip), vehicle: saline
[5] = dose: 16.0 mg/kg/injection, schedule: Q01DX010 (ip), vehicle: saline
[6] = dose: 50.0 mg/kg/injection, schedule: Q01DX010 (ip), vehicle: saline

For Nc1nc2n[nH]nc2c(=O)[nH]1, the survivor count (dose: 25.0 mg/kg/injection, schedule: Q01DX010 (ip), vehicle: alkali diluted with saline) was 1 of 6 and the T/C (dose: 50.0 mg/kg/injection, schedule: Q01DX010 (ip), vehicle: alkali diluted with saline) was 138 and 142 % of control.

With O[C@H](CN1CC1)[C@@H](O)CN1CC1 the T/C (dose: 125.0 micrograms/kg/injection, schedule: Q01DX010 (ip), vehicle: saline) was 132 % of control, the T/C (dose: 250.0 micrograms/kg/injection, schedule: Q01DX010 (ip), vehicle: saline) was 143 % of control and the survivor count (dose: 500.0 micrograms/kg/injection, schedule: Q01DX010 (ip), vehicle: saline) was 6 of 6.

In the case of Oc1cc(CN(CCCl)CCCl)c(O)cc1CN(CCCl)CCCl, the survivor count (dose: 1.25 mg/kg/injection, schedule: Q01DX010 (ip), vehicle: saline) is reported as 3 of 6 and the T/C (dose: 2.5 mg/kg/injection, schedule: Q01DX010 (ip), vehicle: saline) is reported as 132 % of control [4 of 6 alive].

O=C(O)CCCc1ccc(N(CCCl)CCCl)cc1 was tested, and the survivor count [1] was 0 of 6.

With CC/C(=C(/CC)c1ccc(O)cc1)c1ccc(O)cc1 the survivor count [2] was 6 of 6.

For CC[C@]1(O)C[C@H]2CN(CCc3c([nH]c4ccccc34)[C@@](C(=O)OC)(c3cc4c(cc3OC)N(C=O)[C@H]3[C@@](O)(C(=O)OC)[C@H](OC(C)=O)[C@]5(CC)C=CCN6CC[C@]43[C@@H]65)C2)C1, the T/C (dose: 0.12 mg/kg/injection, schedule: Q01DX010 (ip), vehicle: saline) was 127 % of control, the survivor count [3] was 6 of 6 and the survivor count [4] was 5 of 6 and 6 of 6.

In the case of Cc1c2oc3c(C)ccc(C(=O)N[C@@H]4C(=O)N[C@H](C(C)C)C(=O)N5CCC[C@H]5C(=O)N(C)CC(=O)N(C)[C@@H](C(C)C)C(=O)O[C@H]4C)c3nc-2c(C(=O)N[C@@H]2C(=O)N[C@H](C(C)C)C(=O)N3CCC[C@H]3C(=O)N(C)CC(=O)N(C)[C@@H](C(C)C)C(=O)O[C@H]2C)c(N)c1=O (I: [aThr][dV]P[Sar][NMeV] / II: [aThr][dV]P[Sar][NMeV]; ester I:1-I:C, II:1-II:C; linker I:N-II:N via Actinocin(9to1)), the T/C (dose: 25.0 micrograms/kg/injection, schedule: Q01DX010 (ip), vehicle: other) is reported as 126 and 137 % of control, the T/C (dose: 50.0 micrograms/kg/injection, schedule: Q01DX010 (ip), vehicle: other) is reported as 142 % of control and the survivor count (dose: 100.0 micrograms/kg/injection, schedule: Q01DX010 (ip), vehicle: other) is reported as 6 of 6.

For CN(Cc1cnc2nc(N)nc(N)c2n1)c1ccc(C(=O)N[C@@H](CCC(=O)O)C(=O)O)cc1, the T/C (dose: 0.75 mg/kg/injection, schedule: Q01DX010 (ip), vehicle: other) was 126 and 137 % of control and the survivor count (dose: 3.0 mg/kg/injection, schedule: Q01DX010 (ip), vehicle: other) was 5 of 6 and 6 of 6.

For CS(=O)(=O)OCCN(CCOS(C)(=O)=O)c1ccc(N=O)cc1, the T/C [3] was 126 % of control, the T/C [4] was 142 % of control and the survivor count (dose: 2.0 mg/kg/injection, schedule: Q01DX010 (ip), vehicle: saline) was 5 of 6 and 6 of 6. For the same compound, the survivor count (dose: 4.0 mg/kg/injection, schedule: Q01DX010 (ip), vehicle: saline) was 6 of 6, the survivor count (dose: 8.0 mg/kg/injection, schedule: Q01DX010 (ip), vehicle: saline) was 5 of 6 and the survivor count [5] was 0 of 6.

In the case of CC(=O)O[C@]1(C(C)=O)CC[C@H]2[C@@H]3C[C@H](C)C4=CC(=O)C=C[C@]4(C)[C@@]3(F)[C@@H](O)C[C@@]21C, the survivor count (dose: 100.0 mg/kg/injection, schedule: Q01DX010 (sc), vehicle: steroid suspending solution) is reported as 6 of 6.

For CCN(CC)CCNc1ccc(C)c2sc3ccccc3c(=O)c12, the T/C [6] was 128 [5 of 6 alive] and 134 % of control, the survivor count [2] was 6 of 6 and the survivor count (dose: 200.0 mg/kg/injection, schedule: Q01DX010 (ip), vehicle: saline) was 4 of 6 and 6 of 6.

For CN(C)/N=N/c1nc[nH]c1C(N)=O, the T/C [1] was 138 % of control, the T/C [6] was 125 and 138 % of control and the T/C [2] was 135 % of control.

In the case of CSc1ncnc2nc[nH]c12, the T/C [2] is reported as 126 and 138 % of control.

With N=C(N)SCc1c2ccccc2c(CSC(=N)N)c2ccccc12 the T/C (dose: 5.0 mg/kg/injection, schedule: Q01DX010 (ip), vehicle: saline) was 139 % of control, the T/C (dose: 10.0 mg/kg/injection, schedule: Q01DX010 (ip), vehicle: saline) was 135 % of control and the T/C (dose: 20.0 mg/kg/injection, schedule: Q01DX010 (ip), vehicle: saline) was 132 % of control. For the same compound, the T/C (dose: 40.0 mg/kg/injection, schedule: Q01DX010 (ip), vehicle: saline) was 125 % of control.

With CS(=O)(=O)OCCCl the survivor count (dose: 150.0 mg/kg/injection, schedule: Q01DX010 (ip), vehicle: saline) was 3 of 6.

For CC(CCC(C)OS(C)(=O)=O)OS(C)(=O)=O (configuration not stated), the survivor count [5] was 6 of 6.
